# In the supplement of paper PMC6411743:
# ± gives the standard deviation of the averaged measurements. This is a selection; strong and weak results do not stand in their true shares.
# Legend:
# Test in all cases: NP40-soluble protein abundance relative to vehicle (solubility fold change) (ratio); higher = more soluble protein in presence of ATP
# [1] = biological target: T1, C2orf69 (UniProt Q8N8R5)
# T1 sequence (whole entry): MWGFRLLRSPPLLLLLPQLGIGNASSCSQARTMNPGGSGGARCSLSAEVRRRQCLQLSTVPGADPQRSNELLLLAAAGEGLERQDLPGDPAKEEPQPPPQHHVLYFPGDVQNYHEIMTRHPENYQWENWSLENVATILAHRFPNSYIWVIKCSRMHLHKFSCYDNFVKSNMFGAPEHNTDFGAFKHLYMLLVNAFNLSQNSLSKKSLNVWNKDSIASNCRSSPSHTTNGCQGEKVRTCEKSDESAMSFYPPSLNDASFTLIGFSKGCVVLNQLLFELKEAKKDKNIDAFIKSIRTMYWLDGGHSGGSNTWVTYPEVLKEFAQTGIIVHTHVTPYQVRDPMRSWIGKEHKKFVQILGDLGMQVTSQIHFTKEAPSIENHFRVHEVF
# In short: (§1)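 Each value is a fold change relative to the detergent-processed vehicle, calculated per replicate from vsn-normalised intensities. Jurkat crude lysate received eight concentrations (0.1 to 10 mM) for 10 min at room temperature and 3 min at 37 °C, then was solubilised in 0.8% NP40 with benzonase (60 min, 4 °C). The ultracentrifuged supernatant was TMT-labelled and run by LC-MS/MS in three independent experiments.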
# [2] = biological target: T2, CBR4 (UniProt Q8N4T8)
# T2 sequence (whole entry): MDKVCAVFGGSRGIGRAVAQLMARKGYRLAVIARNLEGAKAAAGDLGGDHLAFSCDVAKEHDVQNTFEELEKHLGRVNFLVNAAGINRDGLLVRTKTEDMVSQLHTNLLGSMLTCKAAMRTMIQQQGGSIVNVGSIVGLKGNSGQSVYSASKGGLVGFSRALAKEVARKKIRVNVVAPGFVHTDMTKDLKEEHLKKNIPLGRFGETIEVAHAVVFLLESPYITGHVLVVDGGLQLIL
# In short: as §1
# [3] = biological target: T3, KIAA0319L (UniProt Q8IZA0)
# T3 sequence (whole entry): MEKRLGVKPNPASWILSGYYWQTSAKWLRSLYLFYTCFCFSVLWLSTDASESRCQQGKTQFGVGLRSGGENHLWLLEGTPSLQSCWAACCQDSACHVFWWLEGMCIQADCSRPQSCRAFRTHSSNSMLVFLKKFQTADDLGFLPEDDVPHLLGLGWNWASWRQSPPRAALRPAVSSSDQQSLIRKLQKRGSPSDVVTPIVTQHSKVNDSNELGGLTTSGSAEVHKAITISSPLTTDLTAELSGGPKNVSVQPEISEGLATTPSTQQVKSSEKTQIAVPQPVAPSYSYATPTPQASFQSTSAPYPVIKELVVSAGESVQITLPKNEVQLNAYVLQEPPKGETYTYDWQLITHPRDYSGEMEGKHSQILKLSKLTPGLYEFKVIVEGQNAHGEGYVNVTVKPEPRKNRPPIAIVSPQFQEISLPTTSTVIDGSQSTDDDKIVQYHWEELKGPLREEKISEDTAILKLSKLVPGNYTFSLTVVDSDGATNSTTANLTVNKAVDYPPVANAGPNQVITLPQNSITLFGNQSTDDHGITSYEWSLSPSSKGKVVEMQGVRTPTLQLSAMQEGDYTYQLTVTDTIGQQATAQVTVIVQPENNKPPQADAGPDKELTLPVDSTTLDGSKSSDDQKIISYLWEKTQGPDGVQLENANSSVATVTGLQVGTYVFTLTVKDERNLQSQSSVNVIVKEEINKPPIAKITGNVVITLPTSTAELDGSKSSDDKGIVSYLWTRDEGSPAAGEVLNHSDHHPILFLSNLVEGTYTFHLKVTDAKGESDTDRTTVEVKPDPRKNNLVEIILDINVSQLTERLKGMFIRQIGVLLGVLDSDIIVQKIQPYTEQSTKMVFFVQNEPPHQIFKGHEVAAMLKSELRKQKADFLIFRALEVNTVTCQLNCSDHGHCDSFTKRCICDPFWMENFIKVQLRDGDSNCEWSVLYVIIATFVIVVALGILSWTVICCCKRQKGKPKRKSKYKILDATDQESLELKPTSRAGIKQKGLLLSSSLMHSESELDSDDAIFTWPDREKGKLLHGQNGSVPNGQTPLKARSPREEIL
# In short: as §1
# [4] = biological target: T4, LNX2 (UniProt Q8N448)
# T4 sequence (whole entry): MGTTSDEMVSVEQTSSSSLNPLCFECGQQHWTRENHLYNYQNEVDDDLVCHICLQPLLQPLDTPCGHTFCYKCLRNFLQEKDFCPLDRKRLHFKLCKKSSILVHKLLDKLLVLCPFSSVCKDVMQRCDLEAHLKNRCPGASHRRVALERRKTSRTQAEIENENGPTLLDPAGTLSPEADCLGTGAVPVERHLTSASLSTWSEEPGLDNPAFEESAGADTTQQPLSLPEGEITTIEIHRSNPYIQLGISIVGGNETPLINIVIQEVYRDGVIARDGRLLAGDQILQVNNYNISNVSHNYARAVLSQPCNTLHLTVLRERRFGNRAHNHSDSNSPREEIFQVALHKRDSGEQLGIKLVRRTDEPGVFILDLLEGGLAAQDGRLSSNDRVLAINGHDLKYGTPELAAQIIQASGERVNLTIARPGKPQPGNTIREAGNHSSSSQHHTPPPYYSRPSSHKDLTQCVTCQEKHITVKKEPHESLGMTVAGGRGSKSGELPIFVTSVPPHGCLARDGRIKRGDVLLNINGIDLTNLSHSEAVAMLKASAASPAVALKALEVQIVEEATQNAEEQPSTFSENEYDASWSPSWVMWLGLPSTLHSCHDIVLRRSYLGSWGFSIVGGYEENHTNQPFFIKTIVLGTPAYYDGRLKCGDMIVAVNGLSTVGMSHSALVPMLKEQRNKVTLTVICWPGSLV
# In short: as §1
# [5] = biological target: T5, RBM15B (UniProt Q8NDT2)
# T5 sequence (whole entry): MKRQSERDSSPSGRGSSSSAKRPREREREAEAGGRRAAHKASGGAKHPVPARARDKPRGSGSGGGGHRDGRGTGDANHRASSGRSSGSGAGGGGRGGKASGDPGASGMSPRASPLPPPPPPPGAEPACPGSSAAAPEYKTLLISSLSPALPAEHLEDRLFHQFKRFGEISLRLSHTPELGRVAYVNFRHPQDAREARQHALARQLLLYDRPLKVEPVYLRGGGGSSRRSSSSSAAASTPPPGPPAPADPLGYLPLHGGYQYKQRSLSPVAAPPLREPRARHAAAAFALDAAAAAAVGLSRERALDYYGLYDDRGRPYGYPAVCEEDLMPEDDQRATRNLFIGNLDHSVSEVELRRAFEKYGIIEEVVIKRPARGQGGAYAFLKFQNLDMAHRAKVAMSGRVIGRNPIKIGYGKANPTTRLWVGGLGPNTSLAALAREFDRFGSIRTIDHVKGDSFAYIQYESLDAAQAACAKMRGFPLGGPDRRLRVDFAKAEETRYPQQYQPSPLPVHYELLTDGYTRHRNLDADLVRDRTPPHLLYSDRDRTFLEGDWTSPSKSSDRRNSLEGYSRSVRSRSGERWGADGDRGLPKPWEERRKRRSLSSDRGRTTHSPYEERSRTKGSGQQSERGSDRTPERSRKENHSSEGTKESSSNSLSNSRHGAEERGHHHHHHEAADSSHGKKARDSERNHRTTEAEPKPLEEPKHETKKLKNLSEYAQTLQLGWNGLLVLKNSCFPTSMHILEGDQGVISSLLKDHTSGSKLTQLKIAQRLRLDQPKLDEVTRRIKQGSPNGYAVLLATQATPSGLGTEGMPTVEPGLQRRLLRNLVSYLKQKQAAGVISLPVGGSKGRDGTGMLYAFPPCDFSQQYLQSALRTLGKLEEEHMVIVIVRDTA
# In short: as §1
# [6] = biological target: T6, RP9 (UniProt Q8TA86); conditions: concentration: 1mM
# T6 sequence (whole entry): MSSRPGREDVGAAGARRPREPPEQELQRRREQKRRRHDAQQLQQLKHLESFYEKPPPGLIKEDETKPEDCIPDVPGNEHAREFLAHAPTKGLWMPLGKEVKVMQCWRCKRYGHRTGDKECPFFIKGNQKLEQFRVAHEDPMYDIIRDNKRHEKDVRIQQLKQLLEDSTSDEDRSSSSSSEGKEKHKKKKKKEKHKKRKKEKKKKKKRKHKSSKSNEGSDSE
# In short: as §1
compound,measurement,setting,value
Nc1ncnc2c1ncn2[C@@H]1O[C@H](COP(=O)(O)OP(=O)(O)OP(=O)(O)O)[C@@H](O)[C@H]1O [adenosine triphosphate],NP40-soluble protein abundance,[1]; concentration: 1mM,1.04 ± 0.083
same,NP40-soluble protein abundance,[1]; concentration: 2mM,1 ± 0.064
same,NP40-soluble protein abundance,[1]; concentration: 4mM,1 ± 0.064
same,NP40-soluble protein abundance,[1]; concentration: 6mM,0.951 ± 0.033
same,NP40-soluble protein abundance,[1]; concentration: 8mM,0.973 ± 0.016
same,NP40-soluble protein abundance,[1]; concentration: 10mM,0.949 ± 0.06
same,NP40-soluble protein abundance,[2]; concentration: 1mM,0.949 ± 0.038
same,NP40-soluble protein abundance,[2]; concentration: 2mM,0.975 ± 0.039
same,NP40-soluble protein abundance,[2]; concentration: 4mM,0.974 ± 0.054
same,NP40-soluble protein abundance,[2]; concentration: 6mM,0.907 ± 0.017
same,NP40-soluble protein abundance,[2]; concentration: 8mM,0.945 ± 0.028
same,NP40-soluble protein abundance,[2]; concentration: 10mM,0.984 ± 0.027
same,NP40-soluble protein abundance,[3]; concentration: 1mM,0.977 ± 0.041
same,NP40-soluble protein abundance,[3]; concentration: 2mM,0.965 ± 0.038
same,NP40-soluble protein abundance,[3]; concentration: 4mM,0.987 ± 0.018
same,NP40-soluble protein abundance,[3]; concentration: 6mM,1.01 ± 0.012
same,NP40-soluble protein abundance,[3]; concentration: 8mM,0.944 ± 0.038
same,NP40-soluble protein abundance,[3]; concentration: 10mM,0.958 ± 0.018
same,NP40-soluble protein abundance,[4]; concentration: 1mM,1 ± 0.05
same,NP40-soluble protein abundance,[4]; concentration: 2mM,0.936 ± 0.012
same,NP40-soluble protein abundance,[4]; concentration: 4mM,1.01 ± 0.078
same,NP40-soluble protein abundance,[4]; concentration: 6mM,0.942 ± 0.028
same,NP40-soluble protein abundance,[4]; concentration: 8mM,0.931 ± 0.12
same,NP40-soluble protein abundance,[4]; concentration: 10mM,0.968 ± 0.1
same,NP40-soluble protein abundance,[5]; concentration: 1mM,1.18 ± 0.062
same,NP40-soluble protein abundance,[5]; concentration: 2mM,1.2 ± 0.046
same,NP40-soluble protein abundance,[5]; concentration: 4mM,1.26 ± 0.064
same,NP40-soluble protein abundance,[5]; concentration: 6mM,1.32 ± 0.095
same,NP40-soluble protein abundance,[5]; concentration: 8mM,1.34 ± 0.065
same,NP40-soluble protein abundance,[5]; concentration: 10mM,1.37 ± 0.035
same,NP40-soluble protein abundance,[6],0.978 ± 0.16

# Random excerpt: two entries already listed, in no set order.
compound,measurement,setting,value
Nc1ncnc2c1ncn2[C@@H]1O[C@H](COP(=O)(O)OP(=O)(O)OP(=O)(O)O)[C@@H](O)[C@H]1O [adenosine triphosphate],NP40-soluble protein abundance,[2]; concentration: 10mM,0.984 ± 0.027
same,NP40-soluble protein abundance,[2]; concentration: 2mM,0.975 ± 0.039
